# Data source: PubChem BioAssay AID1224830 (NIAID, 2016)
# Test: 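Regulators of TLR4 signalling towards TNF-alpha in macrophage-like cells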 (primary screen)
# System: human THP-1 monocytic leukaemia cells, TNF dual-luciferase reporter clone, PMA-differentiated to macrophage-like cells
# Knock-down reagent: siRNA pool against human genes, 50 nM
# Time to read-out: LPS for 4 h, given about 3 days after siRNA transfection
# Conditions: bacterial LPS (TLR4 ligand), 10 ng/ml
# Read-out: 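Ratio of firefly to renilla light, scaled to the plate median and expressed as a robust z-score per replicate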
# Scale: TNF reporter robust z-score: higher = stronger TNF reporter response to LPS
# Call rule: 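a well is active when its z-score exceeds 2.8 or falls below -1.5; control wells carry no call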
# The whole screen tested about 18,000 reagents; shown is a part drawn at random. In the full data, about 2,900 (16%) are marked active. 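Calls are made per well; low scores hint the gene aids the LPS response, high scores that it dampens it.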 Entries without a mark were called inactive. The numbers tell different reagents against one gene apart. Repeated entries: four replicate wells of each siRNA pool.
gene knocked down,pool no.,TNF reporter robust z-score
UBXN1 (GeneID 51035),1,-1.08
UBXN1 (GeneID 51035),1,-1.1
UBXN1 (GeneID 51035),1,0.4
UBXN1 (GeneID 51035),1,-0.22
TVP23B (GeneID 51030),1,-0.27
TVP23B (GeneID 51030),1,0.24
TVP23B (GeneID 51030),1,-0.74
TVP23B (GeneID 51030),1,-0.65
XPNPEP1 (GeneID 7511),1,0.09
XPNPEP1 (GeneID 7511),1,-0.73
XPNPEP1 (GeneID 7511),1,-0.56
XPNPEP1 (GeneID 7511),1,1.09
INMT (GeneID 11185),1,-0.47
INMT (GeneID 11185),1,-0.62
INMT (GeneID 11185),1,-0.87
INMT (GeneID 11185),1,-0.99
ZDHHC11 (GeneID 79844),1,-0.42
ZDHHC11 (GeneID 79844),1,-0.57
ZDHHC11 (GeneID 79844),1,-0.12
ZDHHC11 (GeneID 79844),1,0.03
KIF3C (GeneID 3797),1,0.16
KIF3C (GeneID 3797),1,1.08
KIF3C (GeneID 3797),1,1.18
KIF3C (GeneID 3797),1,0.52
HTR1B (GeneID 3351),1,0.47
HTR1B (GeneID 3351),1,0.25
HTR1B (GeneID 3351),1,-0.23
HTR1B (GeneID 3351),1,-0.04
H2AC21 (GeneID 317772),1,0.14
H2AC21 (GeneID 317772),1,0.33
H2AC21 (GeneID 317772),1,-0.76
H2AC21 (GeneID 317772),1,-0.8
TPP1 (GeneID 1200),1,0.93
TPP1 (GeneID 1200),1,2.5
TPP1 (GeneID 1200),1,0.18
TPP1 (GeneID 1200),1,-0.22
PALM2AKAP2 (GeneID 445815),1,2.99 (active)
PALM2AKAP2 (GeneID 445815),1,3.06 (active)
PALM2AKAP2 (GeneID 445815),1,3.34 (active)
PALM2AKAP2 (GeneID 445815),1,3.78 (active)
PALM2AKAP2 (GeneID 445815),2,-0.04
PALM2AKAP2 (GeneID 445815),2,0.84
PALM2AKAP2 (GeneID 445815),2,0.25
PALM2AKAP2 (GeneID 445815),2,0.07
PALM2AKAP2 (GeneID 445815),3,-0.15
PALM2AKAP2 (GeneID 445815),3,-0.64
PALM2AKAP2 (GeneID 445815),3,-0.11
PALM2AKAP2 (GeneID 445815),3,0.03
